Experimental data from the supplement of paper PMC4604168 (melanoma cell lines).
Some of the results follow. Single values are uncertain, as repeats are few or missing.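 The apoptosis fraction was the count of cleaved-PARP antibody-stained nuclei relative to all DNA-stained nuclei, imaged in 1,536-well plates. Screening doses were set so most cells survived, and baseline and induced cleaved-PARP levels vary greatly across cell lines.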

Legend:
Test in all cases: cleaved PARP positive nuclei fraction relative to DMSO control; melanoma cells; higher = more apoptosis
Conditions in all cases: library dose: low library concentration; 72 h
501Mel = system: 501Mel
A101D = system: A101D
A2058 = system: A2058
C32 = system: C32
CBRC008 = system: CBRC008 (line from a melanoma biopsy)
CBRC014 = system: CBRC014 (line from a melanoma biopsy)
CBRC016 = system: CBRC016 (line from a melanoma biopsy)
CBRC017 = system: CBRC017 (line from a melanoma biopsy)
COLO792 = system: COLO792
COLO800 = system: COLO800
COLO829 = system: COLO829
G361 = system: G361
IPC-298 = system: IPC-298
IST-MEL1 = system: IST-MEL1
LB2518-MEL = system: LB2518-MEL
LOXIMVI = system: LOXIMVI
A375 = system: A375
CBRC034 = system: CBRC034 (line from a melanoma biopsy)
MEL-HO = system: MEL-HO

SMILES | cleaved PARP positive nuclei fraction (501Mel) | cleaved PARP positive nuclei fraction (A101D) | cleaved PARP positive nuclei fraction (A2058) | cleaved PARP positive nuclei fraction (C32) | cleaved PARP positive nuclei fraction (CBRC008) | cleaved PARP positive nuclei fraction (CBRC014) | cleaved PARP positive nuclei fraction (CBRC016) | cleaved PARP positive nuclei fraction (CBRC017) | cleaved PARP positive nuclei fraction (COLO792) | cleaved PARP positive nuclei fraction (COLO800) | cleaved PARP positive nuclei fraction (COLO829) | cleaved PARP positive nuclei fraction (G361) | cleaved PARP positive nuclei fraction (IPC-298) | cleaved PARP positive nuclei fraction (IST-MEL1) | cleaved PARP positive nuclei fraction (LB2518-MEL) | cleaved PARP positive nuclei fraction (LOXIMVI) | cleaved PARP positive nuclei fraction (A375) | cleaved PARP positive nuclei fraction (CBRC034) | cleaved PARP positive nuclei fraction (MEL-HO)
C[C@@H](Oc1cc(-c2cnn(C3CCNCC3)c2)cnc1N)c1c(Cl)ccc(F)c1Cl [Crizotinib] + Cn1cc(/C=C2\C(=O)Nc3cccnc32)c2ccccc21 [GW441756] (first compound 0.2 µM, partner dose 0.4 µM) | 99.1% | 10.2% | 222% | 42.2% | 201% | 84.2% | 30% | 103% | 67.2% | 32.8% | 95.6% | 128% | 137% | 110% | 129% | 50.9% |  |  | 
C=C(c1ccc(C(=O)O)cc1)c1cc2c(cc1C)C(C)(C)CCC2(C)C [Bexarotene] + CCN(CC)CCCCNc1ncc2cc(-c3cc(OC)cc(OC)c3)c(NC(=O)NC(C)(C)C)nc2n1 [PD173074] (first compound 2 µM, partner dose 0.1 µM) | 68.9% | 55.4% | 96.2% | 128% | 117% | 257% | 157% | 117% | 88.6% | 41.7% | 68.9% | 87.2% | 147% | 136% | 67.5% | 68.2% |  |  | 
Cn1c(=O)n(-c2ccc(C(C)(C)C#N)cc2)c2c3cc(-c4cnc5ccccc5c4)ccc3ncc21 + COc1ccc2c(c1)CCC1C2CCC2(C)C(NCCCCCCN3C(=O)C=CC3=O)CCC12 [U73122] (first compound 0.004 µM, partner dose 0.4 µM) | 68.8% | 39.7% | 82.9% | 128% | 146% | 213% | 67.6% | 252% | 50.8% | 109% | 147% | 15.1% | 73.1% | 60.3% | 69.4% | 87.1% |  |  | 
CC(C)C[C@H](NC(=O)[C@H](Cc1ccccc1)NC(=O)c1cnccn1)B(O)O [Bortezomib] + CC(C)CCN1c2nc(Nc3cc(F)c(O)c(F)c3)ncc2N(C)C(=O)C1C [BID1870] (first compound 0.001 µM, partner dose 0.2 µM) | 386% | 98.4% | 54.6% | 82.8% | 2090% | 278% | 221% | 392% | 114% | 54% | 137% | 1490% | 88.4% | 150% | 173% | 58.1% |  |  | 
Cn1c(=O)n(-c2ccc(C(C)(C)C#N)cc2)c2c3cc(-c4cnc5ccccc5c4)ccc3ncc21 + N#Cc1c(O)c2c(-c3ccc(-c4ccccc4O)cc3)csc2[nH]c1=O [A769662] (first compound 0.004 µM, partner dose 2 µM) | 151% | 52.5% | 90.8% | 92.7% | 94.8% | 97.3% | 48.4% | 94.7% | 139% | 110% | 83.7% | 112% | 109% | 319% | 47% | 129% |  |  | 
C=C(c1ccc(C(=O)O)cc1)c1cc2c(cc1C)C(C)(C)CCC2(C)C [Bexarotene] + Cn1cc(/C=C2\C(=O)Nc3cccnc32)c2ccccc21 [GW441756] (first compound 2 µM, partner dose 0.4 µM) | 72.7% | 9.49% | 74.1% | 81.6% | 342% | 136% | 220% | 450% | 149% | 30.5% | 133% | 47% | 95.5% | 109% | 53.8% | 63.4% |  |  | 
Nc1ncn([C@H]2C[C@H](O)[C@@H](CO)O2)c(=O)n1 [decitabine] + N#Cc1c(O)c2c(-c3ccc(-c4ccccc4O)cc3)csc2[nH]c1=O [A769662] (first compound 0.1 µM, partner dose 2 µM) | 66.5% | 68.1% | 161% | 69.5% | 70.9% | 548% | 71.2% | 134% | 119% | 97.9% | 305% | 247% | 195% | 145% | 87% | 86.9% |  |  | 
O=C(O)[C@@H]1[O][Sb](=[O])([O][Sb]2(=[O])[O][C@H]([C@H](O)CO)[C@H](O)[C@H](C(=O)O)[O]2)[O][C@H]([C@H](O)CO)[C@@H]1O (stereo partly specified) [stibogluconate] + O=C1NC(=O)/C(=C/c2ccc(-c3ccc(F)cc3O)o2)S1 [AS252424] (first compound 2 µM, partner dose 1 µM) | 34.9% | 26.6% | 87% | 86.5% | 178% | 97% | 33.9% | 107% | 75.8% | 151% | 174% | 155% | 192% | 90.8% | 134% | 107% |  |  | 
Cn1c(=O)n(-c2ccc(C(C)(C)C#N)cc2)c2c3cc(-c4cnc5ccccc5c4)ccc3ncc21 + Nc1nc(F)nc2c1ncn2[C@@H]1O[C@H](CO)[C@@H](O)[C@@H]1O [fludarabine] (first compound 0.004 µM, partner dose 0.2 µM) | 12000% | 310% | 22.5% | 81.6% | 91.5% | 95.5% | 87.7% | 109% | 120% | 103% | 136% | 128% | 96.8% | 182% | 103% | 274% | 4730% | 67.9% | 22.2%
CNC(=O)c1cc(Oc2ccc(NC(=O)Nc3ccc(Cl)c(C(F)(F)F)c3)cc2)ccn1 [sorafenib] + CCCCCCCCCCCC1=C(O)C(=O)C=C(O)C1=O [Embelin] (first compound 0.4 µM, partner dose 1.2 µM) | 64.4% | 12.6% | 83.1% | 141% | 80.3% | 79.8% | 112% | 92.4% | 90.9% | 130% | 35.4% | 78.9% | 45.3% | 113% | 102% | 61.3% |  |  | 
Cc1cc(Nc2cc(N3CCN(C)CC3)nc(/C=C/c3ccccc3)n2)n[nH]1 + O=c1cc(-c2cccc3c2Sc2ccccc2S3)oc(N2CCOCC2)c1 [KU55933] (first compound 0.04 µM, partner dose 1 µM) | 70.6% | 19% | 75.6% | 171% | 84.7% | 71.3% | 66.7% | 81.3% | 91.1% | 43.8% | 62.1% | 96.2% | 48% | 90.9% | 68.3% | 86.5% |  |  | 
Nc1nc(F)nc2c1ncn2[C@@H]1O[C@H](CO)[C@@H](O)[C@@H]1O [fludarabine] + O=C(Nc1ccccc1)c1cc([N+](=O)[O-])ccc1Cl [GW9662] (first compound 0.2 µM, partner dose 2 µM) | 2470% | 38.4% | 23% | 381% | 126% | 82.9% | 66.4% | 113% | 47.6% | 30.8% | 48.2% | 68.6% | 152% | 86.8% | 75% | 181% |  |  | 
CO[C@H]1C[C@@H]2CC[C@@H](C)[C@@](O)(O2)C(=O)C(=O)N2CCCC[C@H]2C(=O)O[C@H]([C@H](C)C[C@@H]2CC[C@@H](OCCO)[C@H](OC)C2)CC(=O)[C@H](C)/C=C(\C)[C@@H](O)[C@@H](OC)C(=O)[C@H](C)C[C@H](C)/C=C/C=C/C=C/1C [everolimus] + O=C1NC(=O)/C(=C/c2ccc(-c3ccc(F)cc3O)o2)S1 [AS252424] (first compound 0.02 µM, partner dose 1 µM) | 115% | 87% | 229% | 70.2% | 300% | 102% | 147% | 112% | 86.4% | 172% | 149% | 93.7% | 175% | 189% | 93.2% | 117% |  |  | 
CS(=O)(=O)CCNCc1ccc(-c2ccc3ncnc(Nc4ccc(OCc5cccc(F)c5)c(Cl)c4)c3c2)o1 [lapatinib] + N#Cc1c(O)c2c(-c3ccc(-c4ccccc4O)cc3)csc2[nH]c1=O [A769662] (first compound 0.8 µM, partner dose 2 µM) | 59% | 49.9% | 120% | 168% | 139% | 108% | 34.9% | 75% | 33.8% | 116% | 74.8% | 69.2% | 48% | 108% | 71.8% | 164% |  |  | 
CC(C)C[C@H](NC(=O)[C@H](Cc1ccccc1)NC(=O)c1cnccn1)B(O)O [Bortezomib] + O=S(=O)(c1ccccc1)N(CC(F)(F)F)c1ccc(C(O)(C(F)(F)F)C(F)(F)F)cc1 [T0901317] (first compound 0.001 µM, partner dose 1.4 µM) | 151% | 244% | 159% | 82.1% | 2350% | 290% | 455% | 350% | 74.1% | 186% | 214% | 1370% | 160% | 170% | 619% | 378% |  |  | 
CC(C)C[C@H](NC(=O)[C@H](Cc1ccccc1)NC(=O)c1cnccn1)B(O)O [Bortezomib] + O=C1NC(=O)/C(=C/c2ccc(-c3ccc(F)cc3O)o2)S1 [AS252424] (first compound 0.001 µM, partner dose 1 µM) | 93.4% | 106% | 75% | 97.5% | 352% | 178% | 578% | 213% | 85.5% | 143% | 392% | 1950% | 66.8% | 124% | 232% | 77.9% |  |  | 
CS(=O)(=O)CCNCc1ccc(-c2ccc3ncnc(Nc4ccc(OCc5cccc(F)c5)c(Cl)c4)c3c2)o1 [lapatinib] + COC(=O)c1sccc1S(=O)(=O)Nc1ccc(Nc2ccccc2)cc1OC [GSK0660] (first compound 0.8 µM, partner dose 1 µM) | 67.8% | 30.6% | 57.4% | 100% | 158% | 118% | 44.3% | 181% | 192% | 36.8% | 47.3% | 25% | 61.4% | 126% | 69.3% | 114% |  |  | 
CO[C@H]1C[C@@H]2CC[C@@H](C)[C@@](O)(O2)C(=O)C(=O)N2CCCC[C@H]2C(=O)O[C@H]([C@H](C)C[C@@H]2CC[C@@H](OCCO)[C@H](OC)C2)CC(=O)[C@H](C)/C=C(\C)[C@@H](O)[C@@H](OC)C(=O)[C@H](C)C[C@H](C)/C=C/C=C/C=C/1C [everolimus] + O=C(O)C(=O)Nc1sc2c(c1C(=O)O)CCNC2 [TCS401] (first compound 0.02 µM, partner dose 1.66667 µM) | 183% | 22.9% | 246% | 171% | 110% | 80.2% | 78.8% | 139% | 122% | 224% | 232% | 115% | 96.3% | 99.1% | 59.7% | 150% |  |  | 

Two entries from above, reformatted:
SMILES	cleaved PARP positive nuclei fraction (501Mel)	cleaved PARP positive nuclei fraction (A101D)	cleaved PARP positive nuclei fraction (A2058)	cleaved PARP positive nuclei fraction (C32)	cleaved PARP positive nuclei fraction (CBRC008)	cleaved PARP positive nuclei fraction (CBRC014)	cleaved PARP positive nuclei fraction (CBRC016)	cleaved PARP positive nuclei fraction (CBRC017)	cleaved PARP positive nuclei fraction (COLO792)	cleaved PARP positive nuclei fraction (COLO800)	cleaved PARP positive nuclei fraction (COLO829)	cleaved PARP positive nuclei fraction (G361)	cleaved PARP positive nuclei fraction (IPC-298)	cleaved PARP positive nuclei fraction (IST-MEL1)	cleaved PARP positive nuclei fraction (LB2518-MEL)	cleaved PARP positive nuclei fraction (LOXIMVI)	cleaved PARP positive nuclei fraction (A375)	cleaved PARP positive nuclei fraction (CBRC034)	cleaved PARP positive nuclei fraction (MEL-HO)
Cn1c(=O)n(-c2ccc(C(C)(C)C#N)cc2)c2c3cc(-c4cnc5ccccc5c4)ccc3ncc21 + Nc1nc(F)nc2c1ncn2[C@@H]1O[C@H](CO)[C@@H](O)[C@@H]1O [fludarabine] (first compound 0.004 µM, partner dose 0.2 µM)	12000%	310%	22.5%	81.6%	91.5%	95.5%	87.7%	109%	120%	103%	136%	128%	96.8%	182%	103%	274%	4730%	67.9%	22.2%
CNC(=O)c1cc(Oc2ccc(NC(=O)Nc3ccc(Cl)c(C(F)(F)F)c3)cc2)ccn1 [sorafenib] + CCCCCCCCCCCC1=C(O)C(=O)C=C(O)C1=O [Embelin] (first compound 0.4 µM, partner dose 1.2 µM)	64.4%	12.6%	83.1%	141%	80.3%	79.8%	112%	92.4%	90.9%	130%	35.4%	78.9%	45.3%	113%	102%	61.3%			
